Measurements reported in PubChem BioAssay AID1224830 (NIAID, 2016).
The whole screen tested about 18,000 reagents; below is an unselected part. Of all reagents, about 2,900 (16%) got an active call. 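Calls are made per well; low scores hint the gene aids the LPS response, high scores that it dampens it.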 Repeated entries: four replicate wells of each siRNA pool. Reagent sequences are not shown.

Test: 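Genes whose knock-down alters the TNF-alpha reporter response to LPS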 (primary screen)
System: human THP-1 monocytic leukaemia cells, TNF dual-luciferase reporter clone, PMA-differentiated to macrophage-like cells
Reagents: siRNA pool against human genes, 50 nM
Timing: LPS for 4 h, given about 3 days after siRNA transfection
Treatment: bacterial LPS (TLR4 ligand), 10 ng/ml
Read-out: 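TNF firefly reporter luminescence divided by renilla, normalised to the plate median, then turned into a robust z-score for each replicate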
Reading the numbers: TNF reporter robust z-score: higher = stronger TNF reporter response to LPS
Hit rule: 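Each well counts as active if its z-score is over 2.8 or under -1.5; controls are left without a call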

With knock-down of GORASP2 the results were TNF reporter robust z-score 0.75; inactive. GORASP2 showed TNF reporter robust z-score -0.31; inactive. Against GORASP2 the deposit lists TNF reporter robust z-score 1.14; inactive. Silencing of GORASP2 resulted in: TNF reporter robust z-score -0.79; inactive. Depletion of PAM came out at: TNF reporter robust z-score 0.34; inactive. PAM showed TNF reporter robust z-score -0.27; inactive.

PAM gave TNF reporter robust z-score -0.17; inactive. PAM gave TNF reporter robust z-score -0.23; inactive. Knock-down of UGDH gave: TNF reporter robust z-score -1.17; inactive. Depletion of UGDH came out at: TNF reporter robust z-score -0.67; inactive. For UGDH, the values are TNF reporter robust z-score -0.82; inactive. For UGDH the deposit lists TNF reporter robust z-score -0.77; inactive.

Knock-down of LINC00471 resulted in: TNF reporter robust z-score 0.44; inactive. Knock-down of LINC00471 gave: TNF reporter robust z-score -0.08; inactive. Against LINC00471, the values are TNF reporter robust z-score 1.01; inactive. Silencing of LINC00471 came out at: TNF reporter robust z-score 1.35; inactive. SLC35D1 showed TNF reporter robust z-score -0.59; inactive. Knock-down of SLC35D1 came out at: TNF reporter robust z-score 0.57; inactive.

SLC35D1 gave TNF reporter robust z-score 0.41; inactive. After knock-down of SLC35D1, the screen gave TNF reporter robust z-score 0.4; inactive. With knock-down of ABCD1, the record shows TNF reporter robust z-score 1.36; inactive. ABCD1 scored TNF reporter robust z-score 1.64; inactive. Depletion of ABCD1 gave: TNF reporter robust z-score 2.05; inactive. With knock-down of ABCD1, the record shows TNF reporter robust z-score 1.77; inactive.

After knock-down of MGME1, the record shows TNF reporter robust z-score 0.55; inactive. For MGME1, the values are TNF reporter robust z-score 1.83; inactive. Depletion of MGME1 gave: TNF reporter robust z-score 0.12; inactive. Depletion of MGME1 resulted in: TNF reporter robust z-score 0.9; inactive. Against MMP7, the entry reads TNF reporter robust z-score 1.93; inactive. Silencing of MMP7 resulted in: TNF reporter robust z-score 2.03; inactive.

Depletion of MMP7 gave: TNF reporter robust z-score 0.87; inactive. Against MMP7 the deposit lists TNF reporter robust z-score 3.57; active. CTNS showed TNF reporter robust z-score 5.96; active. Silencing of CTNS came out at: TNF reporter robust z-score 0.59; inactive. Against CTNS the deposit lists TNF reporter robust z-score -0.1; inactive. CTNS scored TNF reporter robust z-score 0.38; inactive.

Silencing of EVA1B gave: TNF reporter robust z-score -0.59; inactive. For EVA1B, the entry reads TNF reporter robust z-score -0.97; inactive. With knock-down of EVA1B the results were TNF reporter robust z-score -0.05; inactive. Knock-down of EVA1B came out at: TNF reporter robust z-score 0.63; inactive.

An excerpt taken from the entries so far, as a working copy:
MGME1: TNF reporter robust z-score = 0.12; Call = inactive
MGME1: TNF reporter robust z-score = 0.9; Call = inactive
MMP7: TNF reporter robust z-score = 1.93; Call = inactive
MMP7: TNF reporter robust z-score = 2.03; Call = inactive
MMP7: TNF reporter robust z-score = 0.87; Call = inactive

The list goes on:
After knock-down of PLEKHB2 the results were TNF reporter robust z-score 0.04; inactive. After knock-down of PLEKHB2, the screen gave TNF reporter robust z-score -0.08; inactive. Depletion of PLEKHB2 gave: TNF reporter robust z-score -0.27; inactive. Silencing of PLEKHB2 resulted in: TNF reporter robust z-score 0.05; inactive. SEZ6 gave TNF reporter robust z-score 0.49; inactive. SEZ6 scored TNF reporter robust z-score 0.69; inactive.

SEZ6 gave TNF reporter robust z-score 0.56; inactive. With knock-down of SEZ6, the screen gave TNF reporter robust z-score 1.14; inactive. For C5, the entry reads TNF reporter robust z-score -0.02; inactive. For C5 the deposit lists TNF reporter robust z-score -1.21; inactive. With knock-down of C5 the results were TNF reporter robust z-score -1.74; active. With knock-down of C5, the screen gave TNF reporter robust z-score -1.69; active.

Knock-down of RABEP1 resulted in: TNF reporter robust z-score 1.74; inactive. Against RABEP1, the values are TNF reporter robust z-score 1.9; inactive. Against RABEP1, the entry reads TNF reporter robust z-score 1.77; inactive. With knock-down of RABEP1, the screen gave TNF reporter robust z-score 1.75; inactive. With knock-down of GAL3ST4, the screen gave TNF reporter robust z-score -0.29; inactive. GAL3ST4 showed TNF reporter robust z-score -0.77; inactive.

Silencing of GAL3ST4 gave: TNF reporter robust z-score -0.38; inactive. With knock-down of GAL3ST4 the results were TNF reporter robust z-score -0.62; inactive.
